In all, about 31,000 sequences went through this assay and about 1,400 (4.5%) were called active.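 How the source made its calls: active means median seed-adjusted z-score above 1 or below -1; inactive means the rest.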 This is one part of the list.
Experiment: Novel Modifiers of Survival Motor Neuron (SMN) Protein: Gene Identification via Genome-wide siRNA Screen;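 further: luminescence tracks full-length SMN protein made from the SMN2 reporter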
Conditions: HEK293T SMN2-luciferase reporter, siRNA knockdown, 72 h; actives lie on both sides
Method in brief: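 Each of three siRNAs per gene is reverse-transfected (1 pmol) into reporter HEK293T cells whose luciferase output tracks SMN protein level. After 72 h culture, ONE-Glo luminescence is control-normalized, log10-transformed and MAD-standardized; Common Seed Analysis deprioritizes seed-driven hits.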

Row | Sequence | median seed-adjusted z-score
1 | GAUGUUACCUGGAUAUAGATT against DDX1 | inactive: 0.507
2 | CCAUGACAACAGUGGGUUATT against KCNA3 | inactive: 0.213
3 | CUGACCGUCCUGUUUGAUATT against DMRTB1 | inactive: -0.393
4 | CCAUCCUGGUUGCUUCGAATT against GLB1L | inactive: -0.263
5 | GUCCUAAACUUCCUACGAATT against KCTD4 | inactive: 0.649
6 | GCUCAUUCAUAGGAUAUAATT against AKT3 | inactive: -0.0936
7 | GAUUCCUCAUCAUUGGGUATT against ATP9A | inactive: 0.499
8 | GGAACCUGACGAAACAGAATT against PRKCG | inactive: 0
9 | CGAGGAACUAAGACUCAAATT against GPR151 | inactive: -0.263
10 | GCCUUCAGCUGUUACUAUUTT against ZNF823 | inactive: 0.143
11 | CAGUUCCUCGUGUACCAGATT against MAPK12 | inactive: 0.0649
12 | AUGUUUCAAUAGAUCCAGATT against LIMD2 | inactive: 0.418
13 | GCAGGAGCCUUAAUUCCUUTT against KRT78 | inactive: 0.306
14 | CACCGUCUGAGAUAAUAGATT against LST-3TM12 | inactive: -0.109
15 | CUCUGUUUCCGAAAGAAAATT against PLA2G4E | inactive: 0.266
16 | GGGUUCACCUCAGAGAGCATT against DPF3 | inactive: 0.242
17 | CACGAUACCUCGUGCAGGATT against TIMM23 | inactive: 0.899
18 | CGCUUGACACUCACACUUUTT against HOXA9 | inactive: -0.304
19 | GGCUCAUUGUGGUCUCUAATT against STAT2 | inactive: 0
20 | CCAUGUCUCAGUUGGAGGATT against MAN1C1 | inactive: -0.548
21 | GAGAAACCCGUCAACAUCATT against CRLF1 | inactive: -0.45
22 | AGUGGAUUGAUAUUACAGATT against LOX | inactive: -0.175

Row | Sequence | median seed-adjusted z-score
23 | GCAAAACACCAGAACGAGATT against TESSP2 | inactive: 0.419
24 | CGAUCAAUGUUAGAAGUUATT against ACTR2 | inactive: 0.548
25 | AUGGGAUCACAGUAAAUUATT against HRAS | inactive: -0.85
26 | CCAAGAUGCGAUCCUCCAATT against HOXA4 | inactive: 0.194
27 | GCUCCACACUGAUGAAUCATT against ZNF250 | inactive: -0.00985
28 | AAGGAAGUAUUGCUACUAATT against SYNPR | inactive: 0.257
29 | CAACUUCUCCGUAGCAGAATT against AKT2 | inactive: 0
30 | CCCUUAAUCCUGUCUUCAATT against SYT1 | inactive: 0.435
31 | GAUGCAAUCAGUGAAGAAATT against SAR1A | inactive: 0.0213
32 | CCAUCGCCAAGAUUCGGGATT against CYP26C1 | inactive: -0.276
33 | CCAGAUGUUUUCUACCUGATT against CHST4 | inactive: 0.349
34 | CCAAGAAUGCUGCAUCGGATT against ZMYND11 | inactive: -0.032
35 | AGGACGGUGCAGUACAGAATT against ZBTB46 | inactive: 0.0546
36 | GAGCAGACUGGAAAUCUAATT against DDX24 | inactive: 0.246
37 | GAAUCACUGUUUACGUAUUTT against ADCY5 | inactive: -0.123
38 | GCAGAUUUAUCAACGGCUUTT against XIAP | inactive: -0.0329
39 | GGACUAAUCGAGUCAAGCUTT against DUSP1 | inactive: 0.336
40 | GCAGUUUGCAUGUUACAAATT against OXNAD1 | inactive: 0.36
41 | CGUUUUAGAUGAUCCAGAUTT against CALU | inactive: 0.123
42 | AAACACCGCUGUUCCGUAATT against MED8 | active: -1.61
43 | GGUACAUCUAUACUACCAATT against POLR3C | inactive: -0.294
44 | CACUGCAAGUGGACAUCAATT against TGFB1 | inactive: 0

Row | Sequence | median seed-adjusted z-score
45 | GCUAUACUAAUAAGUCAUATT against ZNF337 | inactive: 0.104
46 | GAACUGCUCCGCCUACUACTT against COMTD1 | inactive: 0.0487
47 | GCGCUAAAGUGGAUAAUGATT against ABLIM3 | inactive: -0.29
48 | CACUUAUCUCGAAAGCCUATT against SLC37A1 | inactive: -0.102
49 | CCCUAUGACUGUAAUCACUTT against ZNF200 | inactive: 0.498
50 | GGGUGGAUAUGAGAUCCCATT against KLC4 | inactive: 0
51 | GCAACGCAGAUGCGGCAAATT against BAD | inactive: 0
52 | GGUCAGCAACUAUAGUCGATT against FOLR3 | inactive: 0
53 | CGGACGACGUAAUCACUGATT against HCLS1 | inactive: 0.107
54 | GCUUAAUAAUUUCCUCCGATT against CADPS2 | inactive: -0.0213
55 | CAAAGGACCCAAUAGAAUUTT against GUCY2F | inactive: 0.188
56 | GGACUGACAUUUCACGUAUTT against THAP6 | inactive: 0.368
57 | GGAAAUUGAUAACUACAAATT against ERC1 | inactive: 0.415
58 | AGAGUACCGGUAUUCCCAATT against FOXK1 | inactive: 0.63
59 | GAUACGAAAUGGUGUUAAATT against POLG2 | inactive: 0
60 | AGGACAUUAUCAACCCGGATT against DMAP1 | inactive: 0.342
61 | GGACUCGAAGGUUCACGAATT against ODZ2 | inactive: -0.0233
62 | GCCCAUUGCUAUCAGCAGATT against ZNF512B | inactive: 0.212
63 | GUCCAAAUGAAUUACCUGATT against NDN | inactive: -0.146
64 | GGACAAGUGCAAACGUAAATT against CR1L | inactive: -0.038
65 | CCAACUACACUGACUGGUUTT against TSPAN4 | inactive: 0.417
66 | GACCAGAUAUUGUGAACUUTT against RPL4 | inactive: 0.573

Copied from the entries so far for reference:
Row | Sequence | median seed-adjusted z-score
47 | GCGCUAAAGUGGAUAAUGATT against ABLIM3 | inactive: -0.29
48 | CACUUAUCUCGAAAGCCUATT against SLC37A1 | inactive: -0.102
49 | CCCUAUGACUGUAAUCACUTT against ZNF200 | inactive: 0.498
50 | GGGUGGAUAUGAGAUCCCATT against KLC4 | inactive: 0
51 | GCAACGCAGAUGCGGCAAATT against BAD | inactive: 0
52 | GGUCAGCAACUAUAGUCGATT against FOLR3 | inactive: 0
53 | CGGACGACGUAAUCACUGATT against HCLS1 | inactive: 0.107
54 | GCUUAAUAAUUUCCUCCGATT against CADPS2 | inactive: -0.0213
55 | CAAAGGACCCAAUAGAAUUTT against GUCY2F | inactive: 0.188
56 | GGACUGACAUUUCACGUAUTT against THAP6 | inactive: 0.368
57 | GGAAAUUGAUAACUACAAATT against ERC1 | inactive: 0.415
58 | AGAGUACCGGUAUUCCCAATT against FOXK1 | inactive: 0.63
59 | GAUACGAAAUGGUGUUAAATT against POLG2 | inactive: 0
60 | AGGACAUUAUCAACCCGGATT against DMAP1 | inactive: 0.342
61 | GGACUCGAAGGUUCACGAATT against ODZ2 | inactive: -0.0233
62 | GCCCAUUGCUAUCAGCAGATT against ZNF512B | inactive: 0.212
63 | GUCCAAAUGAAUUACCUGATT against NDN | inactive: -0.146
64 | GGACAAGUGCAAACGUAAATT against CR1L | inactive: -0.038
65 | CCAACUACACUGACUGGUUTT against TSPAN4 | inactive: 0.417
66 | GACCAGAUAUUGUGAACUUTT against RPL4 | inactive: 0.573

The results go on.

Row | Sequence | median seed-adjusted z-score
67 | GCUUGAUACCUUUAUAGGATT against UGP2 | inactive: 0.0766
68 | CUCAUUGAGUUGGACAAAUTT against RHOU | active: -1.44
69 | CGACGAUUCUUCUACUCAATT against CDKN1B | inactive: 0.244
70 | GGAGUUCAAUGUAUGUCUATT against SPINK6 | inactive: 0.275
71 | AGUAGAACGUGUACGCAGATT against MGST1 | inactive: -0.0144
72 | CCCUGUUCGGAGAUUGAUATT against BARHL2 | inactive: -0.147
73 | GCAGGGAGAGAGCAACCAATT against GHRH | inactive: -0.16
74 | GGACUAUCAGUGCAUCCAATT against FNBP1L | inactive: -0.0815
75 | GGAGUUCGAUUAUCAACAATT against DGKH | inactive: 0.13
76 | GGAUAGGCACUCUUCCGAUTT against CHST9 | inactive: 0.252
77 | GCAAGAUCGUCCACUACAATT against DMPK | inactive: -0.0417
78 | CAGUGACUAUGAGAGUGUATT against SCARB2 | inactive: -0.244
79 | AGAAAGGUUUUACUACAAUTT against POLR2C | active: -2.95
80 | CAGUGUUAAUGACCGAAGATT against EIF4G1 | inactive: -0.978
81 | GUGUCAAAGUGGAGAGGCATT against CTSD | inactive: -0.282
82 | GCAUUUACCGCCGAGCUAATT against COL8A1 | inactive: -0.848
83 | GGCAUCUCAUGGUCUGGAATT against PIGO | inactive: -0.218
84 | CGGCACAUCCUGCUUUGUUTT against ZNF213 | active: 1.37
85 | GUGCAGAUCUUAGAGUACATT against ZFP82 | inactive: 0.57
86 | GCAGUUCCCUAACGCAUCATT against RECQL | inactive: -0.905
87 | GAACUUAUAAGUGCAGCAATT against ZNF547 | inactive: 0.099
88 | GCAAGAAUUUCGAUGACUATT against FABP3 | inactive: -0.0786

Row | Sequence | median seed-adjusted z-score
89 | GCAUGUGAAUGUCAGGAAUTT against ZNF439 | inactive: -0.26
90 | GCAUCGAGCAGGAACAGAATT against ATP2B2 | active: 1.37
91 | GCACAAGGCUCUACAACCATT against SLC25A35 | inactive: -0.762
92 | GGCGAACCCUGACUAUCAATT against NR4A2 | inactive: -0.654
93 | GGUUCUAUACUUACAUCAATT against SLC15A1 | inactive: -0.693
94 | GACCGUUCACUGUACAACATT against FUT9 | inactive: 0.0444
95 | CCAAUCCUUUGUAAUCGAATT against PLCL1 | inactive: 0.000254
96 | GGAAAGUUCUUUAGACUUATT against ZNF529 | inactive: -0.243
97 | GCUCCUCUGAUAUCACGUUTT against LMO7 | inactive: 0.417
98 | GGAAAUGACUGGAGUUGGATT against ENOX2 | inactive: 0.0233
99 | AGAAUUACCCACUUCGUAATT against BAHD1 | inactive: 0.376
100 | GCAGCACACCGCUAAACAATT against GRHL1 | inactive: 0.115
101 | GGAUGGAUGAGUACGCAGATT against GALNT10 | inactive: 0
102 | GGGUUGUUUAUGUUACAAATT against MNDA | inactive: 0.232
103 | ACUUUUAUGUUGAUGAGAATT against SERPINA4 | inactive: 0.419
104 | CGCUGGAAGUUUUGCGUGATT against ECE1 | inactive: -0.344
105 | GGACCUCAAUGGGUCACAATT against RASL10A | inactive: 0.151
106 | AACCAUAACUCAUUCCUGATT against RHOH | inactive: 0.443
107 | GCUGUGUACUUCAUCCGGATT against ZNF3 | inactive: -0.149
108 | GGUCAUGCAGGGUUGGAAATT against ALDH1B1 | inactive: 0.105

Reference: PubChem BioAssay AID1347426 (Functional Genomics Laboratory (NCATS/FGL), 2020)
